PubChem BioAssay AID1259424 | University of Nebraska Medical Center – 2018

Aim: 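Seek colon cancer survival genes behaving like KSR1, using a six-gene signature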 (primary screen)
Cell system: human HCT116 colon cancer cells
Reagent: siRNA pool against human genes, 50 nM
Measured: 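Six signature mRNAs by branched-DNA multiplex assay, scaled to two housekeeping genes and non-targeting median, log2; matched to mean KSR1 knockdown profile by Pearson correlation and euclidean distance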
Reading the numbers: mean correlation with KSR1 profile: higher = expression change more like KSR1 knockdown; mean distance from KSR1 profile: higher = expression change less like KSR1 knockdown
Shown is an unselected part of about 14,000 deposited reagents. 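Higher correlation or smaller distance means closer resemblance to KSR1 loss; control wells, including KSR1 knockdowns, recur on many plates.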 Further read-outs or replicates are left out here. Not stated in the record: the time to read-out.

HCFC1R1 (host cell factor C1 regulator 1) [SID364000614]: mean correlation with KSR1 profile = -0.137; mean distance from KSR1 profile = 3.88
GZMK (granzyme K) [SID363993311]: mean correlation with KSR1 profile = 0.447; mean distance from KSR1 profile = 1.96
GNA12 (G protein subunit alpha 12) [SID363997995]: mean correlation with KSR1 profile = -0.153; mean distance from KSR1 profile = 1.89
TAPBP (TAP binding protein) [SID364004810]: mean correlation with KSR1 profile = -0.0985; mean distance from KSR1 profile = 3.36
CHTOP (chromatin target of PRMT1) [SID363999601]: mean correlation with KSR1 profile = -0.368; mean distance from KSR1 profile = 2.09
ECHDC3 (enoyl-CoA hydratase domain containing 3) [SID364002983]: mean correlation with KSR1 profile = 0.732; mean distance from KSR1 profile = 1.5
SLC38A2 [SID364001300]: mean correlation with KSR1 profile = -0.235; mean distance from KSR1 profile = 1.41
CACFD1 (calcium channel flower domain containing 1) [SID364000380]: mean correlation with KSR1 profile = 0.253; mean distance from KSR1 profile = 1.49
SCD5 (stearoyl-CoA desaturase 5) [SID364003151]: mean correlation with KSR1 profile = 0.684; mean distance from KSR1 profile = 1.31
MIA (MIA SH3 domain containing) [SID363997327]: mean correlation with KSR1 profile = -0.0576; mean distance from KSR1 profile = 1.25
RFPL1 (ret finger protein like 1) [SID364001963]: mean correlation with KSR1 profile = -0.487; mean distance from KSR1 profile = 3
TRIM68 (tripartite motif containing 68) [SID364000758]: mean correlation with KSR1 profile = -0.381; mean distance from KSR1 profile = 3.1
YIF1A [SID364001718]: mean correlation with KSR1 profile = 0.0547; mean distance from KSR1 profile = 2.03
WSB1 (WD repeat and SOCS box containing 1) [SID364004541]: mean correlation with KSR1 profile = -0.137; mean distance from KSR1 profile = 2.62
STK35 (serine/threonine kinase 35) [SID364004505]: mean correlation with KSR1 profile = 0.686; mean distance from KSR1 profile = 1.67
TMF1 (TATA element modulatory factor 1) [SID363997830]: mean correlation with KSR1 profile = 0.399; mean distance from KSR1 profile = 1.94
BTG2 (BTG anti-proliferation factor 2) [SID363997534]: mean correlation with KSR1 profile = -0.114; mean distance from KSR1 profile = 2.05

In a second layout: entries from further up
YIF1A [SID364001718]
- mean correlation with KSR1 profile: 0.0547
- mean distance from KSR1 profile: 2.03

WSB1 (WD repeat and SOCS box containing 1) [SID364004541]
- mean correlation with KSR1 profile: -0.137
- mean distance from KSR1 profile: 2.62

STK35 (serine/threonine kinase 35) [SID364004505]
- mean correlation with KSR1 profile: 0.686
- mean distance from KSR1 profile: 1.67

TMF1 (TATA element modulatory factor 1) [SID363997830]
- mean correlation with KSR1 profile: 0.399
- mean distance from KSR1 profile: 1.94

The listing continues:
KIR3DL1 [SID363998410]: mean correlation with KSR1 profile = 0.0895; mean distance from KSR1 profile = 1.65
RIMKLB (ribosomal modification protein rimK like family member B) [SID364005210]: mean correlation with KSR1 profile = -0.727; mean distance from KSR1 profile = 1.42
ACTL6A (actin like 6A) [SID363995295]: mean correlation with KSR1 profile = -0.575; mean distance from KSR1 profile = 2.97
SARNP (SAP domain containing ribonucleoprotein) [SID364004312]: mean correlation with KSR1 profile = -0.143; mean distance from KSR1 profile = 2.48
CDR2L (cerebellar degeneration related protein 2 like) [SID363998975]: mean correlation with KSR1 profile = 0.816; mean distance from KSR1 profile = 1.57
ANAPC10 (anaphase promoting complex subunit 10) [SID363999171]: mean correlation with KSR1 profile = -0.642; mean distance from KSR1 profile = 1.48
PAGE4 (PAGE family member 4) [SID363997739]: mean correlation with KSR1 profile = -0.331; mean distance from KSR1 profile = 2.55
KL (klotho) [SID364004781]: mean correlation with KSR1 profile = -0.0942; mean distance from KSR1 profile = 2.06
JMJD4 (jumonji domain containing 4) [SID364002613]: mean correlation with KSR1 profile = -0.548; mean distance from KSR1 profile = 1.57
TPM4 (tropomyosin 4) [SID363994409]: mean correlation with KSR1 profile = 0.0738; mean distance from KSR1 profile = 1.96
CHST7 (carbohydrate sulfotransferase 7) [SID364001464]: mean correlation with KSR1 profile = -0.868; mean distance from KSR1 profile = 3.39
